The values below come from patent US6005086, “Farnesoid activated receptor polypeptides, and nucleic acid encoding the same” (The Salk Institute for Biological Studies).

For this series, the target named is T1, FAR (FXR, OR2.8) (Rattus norvegicus) (UniProt Q62735).
T1 sequence: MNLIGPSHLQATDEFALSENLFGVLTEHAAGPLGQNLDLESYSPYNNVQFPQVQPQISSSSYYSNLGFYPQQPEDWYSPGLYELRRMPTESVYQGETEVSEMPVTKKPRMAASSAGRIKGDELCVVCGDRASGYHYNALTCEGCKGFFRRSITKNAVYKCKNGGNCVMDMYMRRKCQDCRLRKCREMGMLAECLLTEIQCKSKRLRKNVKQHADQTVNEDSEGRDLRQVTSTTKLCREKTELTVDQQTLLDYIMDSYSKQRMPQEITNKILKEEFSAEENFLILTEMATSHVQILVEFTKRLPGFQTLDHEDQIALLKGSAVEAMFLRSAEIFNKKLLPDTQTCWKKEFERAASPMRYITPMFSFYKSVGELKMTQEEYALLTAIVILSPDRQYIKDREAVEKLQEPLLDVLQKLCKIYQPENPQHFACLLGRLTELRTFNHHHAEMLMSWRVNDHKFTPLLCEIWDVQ
The series is described as follows: EMSA. To be noted: protein translated in vitro; protein details: rabbit reticulocyte lysate TNT, Promega; label: 32P (Klenow). (Mobility shift assays separate free from complexed probe on a gel.)

For at least one entry, the source does not settle the construct or the ends of the probe. A negative result means that nothing was seen under these conditions. Where a protein sequence is shown, tags need not be part of it.

Consider “GGTTCAATGCACT (double strand) [hsp27-EcRE]”, for which the binding result was “no binding”.
